From paper PMC7475180, “The Arabidopsis TRM61/TRM6 complex is a bona fide tRNA N^1-methyladenosine methyltransferase” (Journal of Experimental Botany, 2020)

The chains behind the UniProt entries cited, without tags or fusion partners. Where a name states a change or a piece, a line headed by the entry shows the natural chain unless it says otherwise.
UniProt O80846: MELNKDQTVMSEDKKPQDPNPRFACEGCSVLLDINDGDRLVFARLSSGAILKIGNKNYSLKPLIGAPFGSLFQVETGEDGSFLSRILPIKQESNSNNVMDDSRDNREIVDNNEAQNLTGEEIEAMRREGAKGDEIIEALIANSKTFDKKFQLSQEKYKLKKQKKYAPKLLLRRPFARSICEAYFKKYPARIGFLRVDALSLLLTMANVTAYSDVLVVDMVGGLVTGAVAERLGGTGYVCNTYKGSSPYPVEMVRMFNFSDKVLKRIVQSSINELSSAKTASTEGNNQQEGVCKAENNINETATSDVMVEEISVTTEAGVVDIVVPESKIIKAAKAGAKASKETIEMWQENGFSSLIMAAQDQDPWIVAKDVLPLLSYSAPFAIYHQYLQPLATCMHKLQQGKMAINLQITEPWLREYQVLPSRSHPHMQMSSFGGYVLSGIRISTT

Biological target: BD-AtTRM61 (Arabidopsis) (UniProt F4K6U9)
Assay: two-hybrid; pGBKT7 (BD) and pGADT7 (AD) fusions co-transformed into yeast AH109; growth on SD/-Trp-Leu-His-Ade, 3-7 d at 30 °C

## AD-AtTRM6 (from UniProt O80846)
  binding: binds

These are yes or no findings as the source states them, for the method shown. Binding can be weak; no strength is given.
